Measured values: patent publication EP4442275A1, “ANTI-TYPE II COLLAGEN ANTIBODIES” (ModiQuest B.V., priority 2023, dated 2024)
Changes are numbered by the printed parent chain. No constants are given. Whether binding was seen depends on the method and setting. Some binding calls cover weakened binding; strength is not graded here. Blank lines part the entries; values can stand above or below the binder they belong to.

Protein sequences, listed by entry. Tags and fused reporters are not part of them. Residues count along the entry.
UniProt P02459, residues 182-1241: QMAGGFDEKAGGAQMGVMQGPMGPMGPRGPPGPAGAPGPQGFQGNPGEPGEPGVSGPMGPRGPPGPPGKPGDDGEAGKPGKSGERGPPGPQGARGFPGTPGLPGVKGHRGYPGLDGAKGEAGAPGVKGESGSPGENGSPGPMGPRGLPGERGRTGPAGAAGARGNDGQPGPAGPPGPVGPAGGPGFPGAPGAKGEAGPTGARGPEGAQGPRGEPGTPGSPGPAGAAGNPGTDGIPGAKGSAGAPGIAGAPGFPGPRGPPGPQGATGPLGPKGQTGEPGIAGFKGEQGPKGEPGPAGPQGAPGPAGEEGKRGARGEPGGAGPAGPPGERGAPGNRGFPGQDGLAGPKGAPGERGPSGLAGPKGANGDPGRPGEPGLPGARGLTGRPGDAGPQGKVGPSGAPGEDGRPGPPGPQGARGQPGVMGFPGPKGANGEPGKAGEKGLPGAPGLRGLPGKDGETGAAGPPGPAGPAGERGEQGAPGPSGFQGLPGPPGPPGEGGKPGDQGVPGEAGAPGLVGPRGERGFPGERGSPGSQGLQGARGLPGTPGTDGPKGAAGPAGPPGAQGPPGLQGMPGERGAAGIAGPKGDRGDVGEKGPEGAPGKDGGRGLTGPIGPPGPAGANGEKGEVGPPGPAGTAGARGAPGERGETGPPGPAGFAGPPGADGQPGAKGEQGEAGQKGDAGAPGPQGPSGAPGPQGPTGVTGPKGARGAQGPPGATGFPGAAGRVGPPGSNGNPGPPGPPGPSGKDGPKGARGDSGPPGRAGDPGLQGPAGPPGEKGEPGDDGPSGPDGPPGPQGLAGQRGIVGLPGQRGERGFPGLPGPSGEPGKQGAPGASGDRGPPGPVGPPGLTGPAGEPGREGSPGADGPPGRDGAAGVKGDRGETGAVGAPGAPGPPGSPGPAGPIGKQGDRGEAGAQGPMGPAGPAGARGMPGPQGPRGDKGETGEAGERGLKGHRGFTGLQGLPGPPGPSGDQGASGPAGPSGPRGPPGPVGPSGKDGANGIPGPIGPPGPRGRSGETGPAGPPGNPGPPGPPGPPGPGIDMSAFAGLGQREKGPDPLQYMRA
UniProt P02458, residues 182-1241: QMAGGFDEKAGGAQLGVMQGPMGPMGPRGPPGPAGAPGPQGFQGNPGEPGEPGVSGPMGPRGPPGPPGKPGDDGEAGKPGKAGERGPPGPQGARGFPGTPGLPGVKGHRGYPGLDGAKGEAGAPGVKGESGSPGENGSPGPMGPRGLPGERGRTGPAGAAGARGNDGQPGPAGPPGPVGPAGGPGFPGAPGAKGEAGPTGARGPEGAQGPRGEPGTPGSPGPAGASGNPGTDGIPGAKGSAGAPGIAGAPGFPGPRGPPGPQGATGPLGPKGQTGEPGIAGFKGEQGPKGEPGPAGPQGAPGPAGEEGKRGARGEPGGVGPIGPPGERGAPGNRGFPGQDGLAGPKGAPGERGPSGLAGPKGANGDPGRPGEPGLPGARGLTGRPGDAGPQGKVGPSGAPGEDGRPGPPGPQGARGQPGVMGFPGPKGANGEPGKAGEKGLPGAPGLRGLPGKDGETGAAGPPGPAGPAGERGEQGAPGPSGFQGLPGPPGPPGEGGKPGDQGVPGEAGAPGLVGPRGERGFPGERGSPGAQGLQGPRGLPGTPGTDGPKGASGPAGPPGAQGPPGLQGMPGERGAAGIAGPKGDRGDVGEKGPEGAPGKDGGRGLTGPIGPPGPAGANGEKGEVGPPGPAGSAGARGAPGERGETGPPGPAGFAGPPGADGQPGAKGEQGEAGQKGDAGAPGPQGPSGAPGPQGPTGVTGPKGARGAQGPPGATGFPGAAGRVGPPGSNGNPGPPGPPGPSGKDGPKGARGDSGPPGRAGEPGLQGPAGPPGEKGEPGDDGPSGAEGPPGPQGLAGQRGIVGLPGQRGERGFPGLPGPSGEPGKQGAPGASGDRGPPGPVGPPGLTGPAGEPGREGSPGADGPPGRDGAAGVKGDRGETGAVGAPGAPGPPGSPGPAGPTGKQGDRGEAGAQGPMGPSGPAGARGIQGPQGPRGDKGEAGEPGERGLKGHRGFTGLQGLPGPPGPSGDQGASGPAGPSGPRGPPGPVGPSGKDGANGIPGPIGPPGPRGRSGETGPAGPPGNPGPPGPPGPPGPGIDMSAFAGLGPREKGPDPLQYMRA

What was measured:
[1] = molecular target: Bovine Collagen type II (bovine) (UniProt P02459); assay: ELISA on coated bovine collagen type II, anti-human IgG-HRP
[2] = molecular target: Bovine Collagen type II (bovine) (UniProt P02459); assay: ELISA on coated collagen type II (Figure 3, bovine), anti-human IgG-HRP
[3] = molecular target: Human collagen Type II (human) (UniProt P02458); assay: 111In-DTPA-labelled antibody on human cartilage explants, gamma counting (Example 5)
[4] = molecular target: Bovine Collagen type II (bovine) (UniProt P02459); assay: HRP/DAB staining of bovine cartilage punches, 5 µg/ml primary antibody (Example 4)
[5] = molecular target: Human collagen Type II (human) (UniProt P02458); assay: 111In-DTPA-labelled antibody (4 µg/ml) on human cartilage explants, gamma counting (Example 5)
[6] = molecular target: Human collagen Type II (human) (UniProt P02458); assay: Fig 8 legend: 111In-DTPA-labelled antibody on human cartilage explants, gamma counting
[7] = molecular target: Bovine Collagen type II (bovine) (UniProt P02459); assay: 111In-DTPA-labelled antibody on trypsin-damaged bovine cartilage explants, gamma counting (Example 5)
[8] = molecular target: Human collagen Type II (human) (UniProt P02458); assay: Fig 10 legend: in vivo IVIS imaging of human cartilage implants in SCID mice
[9] = molecular target: Bovine Collagen type II (bovine) (UniProt P02459); assay: 111In-DTPA-labelled antibody (4 µg/ml) on bovine cartilage explants, gamma counting (Example 5)
[10] = molecular target: Human collagen Type II (human) (UniProt P02458); assay: Fig 9 legend: fluorescence of labelled antibody on human cartilage explants with or without trypsin
[11] = molecular target: Human collagen Type II (human) (UniProt P02458); assay: in vivo: labelled antibody injected i.v. into SCID mice with human cartilage implants; IVIS imaging and gamma counting (Example 7)
[12] = molecular target: Bovine Collagen type II (bovine) (UniProt P02459); assay: Fig 6A legend: HRP/DAB staining of bovine cartilage punches, untreated or trypsin-treated
[13] = molecular target: Human collagen Type II (human) (UniProt P02458); assay: in vivo: labelled antibody injected i.v. into SCID mice with human cartilage implants (Example 7)
[14] = molecular target: Bovine Collagen type II (bovine) (UniProt P02459); assay: 111In-DTPA-labelled antibody on bovine cartilage explants, gamma counting (Example 5)
[15] = molecular target: Human collagen Type II (human) (UniProt P02458); assay: DTPA-IrDye 800CW-labelled antibody (4 µg/ml) on human cartilage explants, Odyssey near infrared imaging (Example 6)
[16] = molecular target: Human collagen Type II (human) (UniProt P02458); assay: DTPA-IrDye 800CW-labelled antibody (4 µg/ml) on human OA cartilage of different damage stages, Odyssey imaging (Example 8)
[17] = molecular target: Human collagen Type II (human) (UniProt P02458); assay: Fig 11 legend: fluorescence of labelled antibody on human OA cartilage explants
[18] = molecular target: Bovine Collagen type II (bovine) (UniProt P02459); assay: ELISA on coated bovine collagen type II
[19] = molecular target: Bovine Collagen type II (bovine) (UniProt P02459); assay: 111In-DTPA-labelled antibody on untreated bovine cartilage explants, gamma counting (Example 5)
[20] = molecular target: Bovine Collagen type II (bovine) (UniProt P02459); assay: 125I-labelled antibody on trypsin-damaged bovine cartilage explants, gamma counting
[21] = molecular target: Bovine Collagen type II (bovine) (UniProt P02459); assay: Fig 1 legend: 125I-labelled antibody on trypsin-damaged bovine cartilage explants
[22] = molecular target: Bovine Collagen type II (bovine) (UniProt P02459); assay: ELISA on coated collagen type II (Figure 3, bovine), anti-mouse IgG-HRP; the filing warns that the different secondary antibody could cause the difference
[23] = molecular target: Bovine Collagen type II (bovine) (UniProt P02459); assay: ELISA on coated bovine collagen type II, anti-mouse IgG-HRP
[24] = molecular target: Bovine Collagen type II (bovine) (UniProt P02459); assay: Fig 7 legend: weight-corrected cartilage-associated radioactivity, bovine explants

B1: MQ4.112hz_1_1 (antibody, V domains shown)
VH: QVQLQESGPGLVKPSETLSLTCAVSGYSITSDYYWHWIRQPPGKGLEWMGYISYDGSNNYNPSLKSRVTISVDTSKNQFSLKLSSVTAADTAVYYCARDDDAMDYWGQGTLVTVSS
VL: DIQMTQSPSSLSASVGDRVTITCRASQDISNYLNWYQQKPGKAPKLLIYYTSRLHSGVPSRFSGSGSGTDFTFTISSLQPEDIATYYCQQGNTLPPTFGQGTKVEIK
binding [1]: binds
binding [2]: binds

B2: MQ4.112hz_1_2 (antibody, V domains shown)
VH: B1 VH
VL: B1 VL with P80Y
binding [1]: binds
binding [2]: binds

B4: MQ4.112hz_2_2 (antibody, IgG1, V domains shown)
VH: B1 VH with Q1D
VL: B1 VL with P80Y
binding [1]: binds
binding [2]: binds

B8: MQ4.112hz_2_1 (antibody, V domains shown)
VH: B1 VH with Q1D
VL: B1 VL
binding [1]: binds
binding [2]: binds

B13: MQ4.112 (antibody, V domains shown)
VH: DVQLQESGPGLVKPSQSLSLTCSVTGYSITSDYYWHWIRQFPGNKLEWMGYISYDGSNNYNPSLKNRISITRDTSKNQFFLKLNSVTTEDTATYYCARDDDAMDYWGQGTSVTVSS
VL: DIQMTQTTSSLSASLGDRVTISCRASQDISNYLNWYQQKPDGTVKLLIYYTSRLHSGVPSRFSGSGSGTDYSLTISNLEQEDIATYFCQQGNTLPPTFGGGTKLEIK
binding [4]: binds
binding [24]: binds
binding [18]: binds
binding [9]: binds
binding [20]: binds
binding [12]: binds
binding [14]: binds
binding [21]: binds
binding [23]: binds

More lines, main results first:

binding [1]: binds
binding [2]: binds
B3: MQ4.112hz_4_1 (antibody, V domains shown)
VH: B1 VH with Q1D, P41F, V72R
VL: B1 VL

binding [3]: binds
binding [4]: binds
binding [5]: binds
binding [1]: binds
binding [6]: binds
binding [8]: binds
binding [2]: binds
binding [9]: binds
binding [10]: binds
binding [11]: binds
binding [12]: binds
binding [13]: binds
binding [14]: binds
binding [15]: binds
binding [17]: binds
B5: MQ4.112hz_3_1 (antibody, V domains shown)
VH: B1 VH with Q1D, P41F
VL: B1 VL
binding [7]: binds
binding [16]: binds

binding [1]: binds
binding [2]: binds
B6: MQ4.112hz_4_2 (antibody, V domains shown)
VH: B1 VH with Q1D, P41F, V72R
VL: B1 VL with P80Y

binding [1]: binds
binding [2]: binds
B7: MQ4.112hz_3_2 (antibody, V domains shown)
VH: B1 VH with Q1D, P41F
VL: B1 VL with P80Y

binding [18]: binds
binding [19]: binds
binding [9]: binds
binding [12]: binds
binding [14]: binds
binding [22]: binds
binding [23]: binds
B9: MQ4.117 (antibody, V domains shown)
VH: QVQLQQPGAELVKPGASVKMSCKTSGYTFTSCNMHWVKQTPGQGLEWIGAVYPGNGDTSYNQKFKGKATLTADKSSSTAYMQLSSLTSEDSAVYYCARGKRDAMDYWGQGTSVTVSS
VL: DIVLTQSPASLAVSLGQRATISCRASESVDSYGNSFMHWYQQKPGQPPKLLIYRASNLESGIPARFSGSGSRTDFTLTINPVEADDVATYYCQQSNEDPLTFGAGTKLELK
binding [20]: binds
binding [21]: binds

binding [1]: binds
binding [9]: binds
binding [12]: binds
B10: MQ4.117m_1_1 (antibody, IgG1, V domains shown)
VH: B9 VH
VL: B9 VL

binding [1]: binds
binding [2]: binds
binding [9]: binds
binding [12]: binds
B11: MQ4.117hz_1_2 (antibody, V domains shown)
VH: QVQLVQSGAEVKKPGASVKVSCKASGYTFTSCNMHWVRQAPGQRLEWIGAVYPGNGDTSYNQKFQGRVTITRDTSASTAYMELSSLRSEDTAVYYCARGKRDAMDYWGQGTLVTVSS
VL: DIVMTQTPLSLSVTPGQRASISCRASESVDSYGNSFMHWYLQKPGQPPQLLIYRASNLESGVPDRFSGSGSGTDFTLKISRVEAEDVGVYYCQQSNEDPLTFGQGTKVEIK

binding [4]: binds
binding [1]: binds
binding [9]: binds
binding [12]: binds
B12: MQ4.112m_1_1 (antibody, V domains shown)
VH: B13 VH
VL: B13 VL
